Where two headings read alike, the source gives them in different places. These are yes or no findings as the source states them, for the method shown. Binding seen in cells or lysates may run through a third protein. Some entries that bind do so weakly or less than the wild type.
How the values were obtained:
[1] = target: FLAG-BPLF1^C61A (catalytic mutant) (Epstein-Barr virus) (UniProt P03186); assay: co-IP
[2] = target: FLAG-BPLF1^C61A (catalytic mutant) (Epstein-Barr virus) (UniProt P03186); assay: co-IP; remark: listed apart in the source

Sequences of proteins named here, by UniProt entry; tags and fusion partners are left off. A change or cut given only in a name is not applied to a line headed by its entry.
UniProt O94822, whole entry: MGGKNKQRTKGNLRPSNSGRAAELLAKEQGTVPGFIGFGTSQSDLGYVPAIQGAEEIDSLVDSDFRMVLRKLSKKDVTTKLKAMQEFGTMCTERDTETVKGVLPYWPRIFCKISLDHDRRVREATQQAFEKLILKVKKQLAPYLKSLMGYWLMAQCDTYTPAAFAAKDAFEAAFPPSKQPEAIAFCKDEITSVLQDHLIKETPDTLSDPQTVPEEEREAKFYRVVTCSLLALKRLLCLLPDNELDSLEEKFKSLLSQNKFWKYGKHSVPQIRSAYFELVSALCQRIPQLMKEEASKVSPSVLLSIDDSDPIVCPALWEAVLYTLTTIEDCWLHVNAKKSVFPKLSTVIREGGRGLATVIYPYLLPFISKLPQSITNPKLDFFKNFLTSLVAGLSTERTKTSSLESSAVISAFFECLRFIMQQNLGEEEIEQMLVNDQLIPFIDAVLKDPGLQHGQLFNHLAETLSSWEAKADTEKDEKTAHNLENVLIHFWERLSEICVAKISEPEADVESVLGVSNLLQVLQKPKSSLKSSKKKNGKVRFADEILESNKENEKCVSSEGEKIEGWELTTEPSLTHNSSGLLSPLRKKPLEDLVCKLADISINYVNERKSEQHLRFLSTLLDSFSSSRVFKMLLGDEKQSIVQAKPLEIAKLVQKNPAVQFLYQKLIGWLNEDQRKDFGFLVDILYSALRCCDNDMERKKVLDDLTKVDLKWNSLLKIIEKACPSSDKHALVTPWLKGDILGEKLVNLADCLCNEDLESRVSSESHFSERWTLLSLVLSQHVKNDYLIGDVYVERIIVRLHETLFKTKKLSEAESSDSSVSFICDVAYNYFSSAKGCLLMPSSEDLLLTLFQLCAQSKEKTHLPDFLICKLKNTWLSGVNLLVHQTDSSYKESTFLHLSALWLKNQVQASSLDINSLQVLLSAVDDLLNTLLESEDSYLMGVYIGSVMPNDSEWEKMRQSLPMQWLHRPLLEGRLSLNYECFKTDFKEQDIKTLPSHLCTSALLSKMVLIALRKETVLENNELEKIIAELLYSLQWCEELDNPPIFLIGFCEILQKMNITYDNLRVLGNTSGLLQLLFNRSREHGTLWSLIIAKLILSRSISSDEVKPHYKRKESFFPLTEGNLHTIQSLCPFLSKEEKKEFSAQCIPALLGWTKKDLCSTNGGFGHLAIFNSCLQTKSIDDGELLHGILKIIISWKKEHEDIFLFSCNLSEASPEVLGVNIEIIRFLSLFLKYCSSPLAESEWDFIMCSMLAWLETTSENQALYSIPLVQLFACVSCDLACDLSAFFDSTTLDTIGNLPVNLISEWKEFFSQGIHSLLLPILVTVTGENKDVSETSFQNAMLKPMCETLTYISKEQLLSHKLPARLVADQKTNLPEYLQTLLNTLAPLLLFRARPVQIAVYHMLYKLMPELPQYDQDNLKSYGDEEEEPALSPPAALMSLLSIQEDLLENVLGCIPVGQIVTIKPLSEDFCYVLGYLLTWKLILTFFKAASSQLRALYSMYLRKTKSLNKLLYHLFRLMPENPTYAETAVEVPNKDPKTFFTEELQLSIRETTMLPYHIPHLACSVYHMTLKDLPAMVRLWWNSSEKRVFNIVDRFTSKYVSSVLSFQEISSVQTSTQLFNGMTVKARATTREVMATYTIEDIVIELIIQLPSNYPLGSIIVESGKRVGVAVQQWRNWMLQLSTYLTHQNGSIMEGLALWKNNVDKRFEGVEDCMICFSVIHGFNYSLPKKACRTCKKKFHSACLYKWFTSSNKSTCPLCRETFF

Molecule	binding [1]	binding [2]
Listerin-1 (LTN1) (from UniProt O94822 1-1766)	binds	
ZNF598 (protein, UniProt Q86UK7 1-904) MAAAGGAEGRRAALEAAAAAAPERGGGSCVLCCGDLEATALGRCDHPVCYRCSTKMRVLCEQRYCAVCREELRQVVFGKKLPAFATIPIHQLQHEKKYDIYFADGKVYALYRQLLQHECPRCPELPPFSLFGDLEQHMRRQHELFCCRLCLQHLQIFTYERKWYSRKDLARHRMQGDPDDTSHRGHPLCKFCDERYLDNDELLKHLRRDHYFCHFCDSDGAQDYYSDYAYLREHFREKHFLCEEGRCSTEQFTHAFRTEIDLKAHRTACHSRSRAEARQNRHIDLQFSYAPRHSRRNEGVVGGEDYEEVDRYSRQGRVARAGTRGAQQSRRGSWRYKREEEDREVAAAVRASVAAQQQEEARRSEDQEEGGRPKKEEAAARGPEDPRGPRRSPRTQGEGPGPKETSTNGPVSQEAFSVTGPAAPGCVGVPGALPPPSPKLKDEDFPSLSASTSSSCSTAATPGPVGLALPYAIPARGRSAFQEEDFPALVSSVPKPGTAPTSLVSAWNSSSSSKKVAQPPLSAQATGSGQPTRKAGKGSRGGRKGGPPFTQEEEEDGGPALQELLSTRPTGSVSSTLGLASIQPSKVGKKKKVGSEKPGTTLPQPPPATCPPGALQAPEAPASRAEGPVAVVVNGHTEGPAPARSAPKEPPGLPRPLGSFPCPTPQEDFPALGGPCPPRMPPPPGFSAVVLLKGTPPPPPPGLVPPISKPPPGFSGLLPSPHPACVPSPATTTTTKAPRLLPAPRAYLVPENFRERNLQLIQSIRDFLQSDEARFSEFKSHSGEFRQGLISAAQYYKSCRDLLGENFQKVFNELLVLLPDTAKQQELLSAHTDFCNREKPLSTKSKKNKKSAWQATTQQAGLDCRVCPTCQQVLAHGDASSHQALHAARDDDFPSLQAIARIIT		binds
